# Measurements reported in PubChem BioAssay AID662 (National Center for Advancing Translational Sciences (NCATS), 2007).
# The list shows a part of the results. The main result of the screen is listed elsewhere. These columns were measured beside it and carry no call. The list favours compounds with an active or inconclusive main result. Potencies come from curve fits of mixed quality, noted in brackets.
# Test: Cell signaling CRE-BLA (Fsk stim)
# Settings: CHO CRE-bla reporter (cAMP response element driving beta-lactamase), forskolin EC10, beta-lactamase ratio; measured here: 460 nm blue channel
# Procedure, shortened: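 Titrated compounds plus EC10 NKH 477 on CHO CRE-bla cells, 3 h, 37 °C. CCF4, 2 h RT. Ratio 460/530 nm → AC50.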
row,Structure (SMILES),AC50
1,CCn1c(N)c(C(=O)Nc2ccccc2C(=O)OC)sc1=S,"7.94 µM [rising, partial curve]"
2,Cc1nc2nc(C)c(CCC(=O)N3CCOCC3)c(C)n2n1,"0.631 µM [falling, full curve, poor fit]"
3,COc1ccc(-c2noc(CCC(=O)Nc3cccc(C)c3)n2)cc1,"6.31 µM [falling, partial curve, poor fit]"
4,COc1ccc(Oc2ncc3nc(-c4cn(C)c5ccccc45)c(=O)n(CCC#N)c3n2)cc1,"2 µM [rising, full curve]"
5,C=CCSc1nc(N)c2c(C)c(C)sc2n1,"0.501 µM [rising, partial curve]"
6,CCOC(=O)C1=C(C)NC(=O)N[C@@H]1c1coc2cc(C)cc(C)c2c1=O,"1 µM [falling, single point]"
7,COc1cccc(Cn2c(=O)c(-c3cn(C)c4ccccc34)nc3cnc(OC)nc32)c1,"12.6 µM [rising, partial curve]"
8,COc1ncc2nc(-c3cccs3)c(=O)n(Cc3ccc(F)cc3)c2n1,"5.01 µM [rising, partial curve]"
9,COc1ccc(Cn2c(CCC(=O)Nc3ccc(CC#N)cc3)nc3cccnc32)cc1,"0.794 µM [rising, full curve]"
10,CCSc1nnc(NC(=O)c2nn(C(C)C)c(=O)c3ccccc23)s1,"3.16 µM [rising, single point]"
11,CN(C)CCCn1c(N)c(C#N)c2nc(C#N)c(C#N)nc21,"12.6 µM [rising, single point]"
12,O=C(Nc1ccccc1)[C@@]12C[C@@H]1/C(=N/O)c1ccccc1O2,"31.6 µM [falling, single point]"
13,COCCOC(=O)C1=C(C)NC2=C(C(=O)CC(C)(C)C2)C1c1cccnc1 (stereo not drawn),"12.6 µM [rising, single point]"
14,CCN1C(=O)C(NC(C)=O)c2cc(OC)ccc21 (stereo not drawn),"3.98 µM [rising, single point]"
15,CCCc1cc(=O)[nH]c(SCC(=O)N(C)Cc2ccccc2)n1,"3.98 µM [falling, partial curve]"
16,Cc1oc(/N=C/c2cccc3ccccc23)c(C#N)c1C,"0.00398 µM [falling, full curve, poor fit]"
17,Cn1c(=O)c2c(ncn2CC(=O)Nc2nc(-c3ccccc3Cl)cs2)n(C)c1=O,"0.00316 µM [falling, full curve, poor fit]"
18,O=C1c2ccccc2C(=O)N1CCCc1nc2ccccc2c(=O)n1CCCn1ccnc1,"10 µM [rising, partial curve]"

# 3 structures from above, arranged by formula weight, low to high.
row,Structure (SMILES),AC50
10,CCSc1nnc(NC(=O)c2nn(C(C)C)c(=O)c3ccccc23)s1,"3.16 µM [rising, single point]"
9,COc1ccc(Cn2c(CCC(=O)Nc3ccc(CC#N)cc3)nc3cccnc32)cc1,"0.794 µM [rising, full curve]"
7,COc1cccc(Cn2c(=O)c(-c3cn(C)c4ccccc34)nc3cnc(OC)nc32)c1,"12.6 µM [rising, partial curve]"
